± gives the standard deviation of the averaged measurements. The list shows a part of the results, in another mix than the full data.
Compound: Nc1ncnc2c1ncn2[C@@H]1O[C@H](COP(=O)(O)OP(=O)(O)NP(=O)(O)O)[C@@H](O)[C@H]1O [adenylyl imidodiphosphate]
Assay: NP40-soluble protein abundance relative to vehicle (solubility fold change) (ratio); higher = more soluble protein in presence of AMP-PNP
How it was run: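 Data come from three independent experiments in which Dounce-homogenised Jurkat crude lysate was treated at eight concentrations from 0.1 to 10 mM. Treatment ran 10 min at room temperature and then 3 min at 37 °C, after which 0.8% NP40 and benzonase were added for 60 min at 4 °C before ultracentrifugation. The supernatant underwent TMT labelling and LC-MS/MS, and vsn-normalised intensities were expressed as fold change against the detergent-processed vehicle in each replicate.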

Protein sequences, listed by entry. Tags and fused reporters are not part of them. Lines headed by an entry give the natural chain unless they say otherwise; changes in a name come on top.
UniProt Q7Z4V5: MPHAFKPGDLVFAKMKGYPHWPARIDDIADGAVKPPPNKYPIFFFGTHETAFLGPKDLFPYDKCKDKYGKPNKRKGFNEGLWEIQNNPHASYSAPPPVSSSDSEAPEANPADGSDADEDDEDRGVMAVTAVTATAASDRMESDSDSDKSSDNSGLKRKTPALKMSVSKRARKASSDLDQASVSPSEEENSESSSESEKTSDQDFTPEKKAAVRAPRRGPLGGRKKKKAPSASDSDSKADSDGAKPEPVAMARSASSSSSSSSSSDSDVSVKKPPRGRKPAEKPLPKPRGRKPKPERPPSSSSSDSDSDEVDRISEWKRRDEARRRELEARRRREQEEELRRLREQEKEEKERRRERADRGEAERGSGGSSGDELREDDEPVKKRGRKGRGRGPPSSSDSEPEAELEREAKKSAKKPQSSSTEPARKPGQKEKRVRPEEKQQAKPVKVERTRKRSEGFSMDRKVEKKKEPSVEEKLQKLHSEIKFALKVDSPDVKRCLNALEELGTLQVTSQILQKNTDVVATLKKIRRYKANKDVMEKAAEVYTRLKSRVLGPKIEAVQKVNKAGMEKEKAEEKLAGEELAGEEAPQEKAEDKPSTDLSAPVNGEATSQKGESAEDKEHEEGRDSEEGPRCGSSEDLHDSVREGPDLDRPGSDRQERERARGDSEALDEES
UniProt Q96AB3: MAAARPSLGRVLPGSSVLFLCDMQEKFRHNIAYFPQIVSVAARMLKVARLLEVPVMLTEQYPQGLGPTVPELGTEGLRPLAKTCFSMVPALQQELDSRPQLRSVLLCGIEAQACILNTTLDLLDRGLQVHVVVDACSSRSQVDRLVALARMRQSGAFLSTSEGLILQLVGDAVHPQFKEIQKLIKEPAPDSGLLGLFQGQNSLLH
UniProt O00411: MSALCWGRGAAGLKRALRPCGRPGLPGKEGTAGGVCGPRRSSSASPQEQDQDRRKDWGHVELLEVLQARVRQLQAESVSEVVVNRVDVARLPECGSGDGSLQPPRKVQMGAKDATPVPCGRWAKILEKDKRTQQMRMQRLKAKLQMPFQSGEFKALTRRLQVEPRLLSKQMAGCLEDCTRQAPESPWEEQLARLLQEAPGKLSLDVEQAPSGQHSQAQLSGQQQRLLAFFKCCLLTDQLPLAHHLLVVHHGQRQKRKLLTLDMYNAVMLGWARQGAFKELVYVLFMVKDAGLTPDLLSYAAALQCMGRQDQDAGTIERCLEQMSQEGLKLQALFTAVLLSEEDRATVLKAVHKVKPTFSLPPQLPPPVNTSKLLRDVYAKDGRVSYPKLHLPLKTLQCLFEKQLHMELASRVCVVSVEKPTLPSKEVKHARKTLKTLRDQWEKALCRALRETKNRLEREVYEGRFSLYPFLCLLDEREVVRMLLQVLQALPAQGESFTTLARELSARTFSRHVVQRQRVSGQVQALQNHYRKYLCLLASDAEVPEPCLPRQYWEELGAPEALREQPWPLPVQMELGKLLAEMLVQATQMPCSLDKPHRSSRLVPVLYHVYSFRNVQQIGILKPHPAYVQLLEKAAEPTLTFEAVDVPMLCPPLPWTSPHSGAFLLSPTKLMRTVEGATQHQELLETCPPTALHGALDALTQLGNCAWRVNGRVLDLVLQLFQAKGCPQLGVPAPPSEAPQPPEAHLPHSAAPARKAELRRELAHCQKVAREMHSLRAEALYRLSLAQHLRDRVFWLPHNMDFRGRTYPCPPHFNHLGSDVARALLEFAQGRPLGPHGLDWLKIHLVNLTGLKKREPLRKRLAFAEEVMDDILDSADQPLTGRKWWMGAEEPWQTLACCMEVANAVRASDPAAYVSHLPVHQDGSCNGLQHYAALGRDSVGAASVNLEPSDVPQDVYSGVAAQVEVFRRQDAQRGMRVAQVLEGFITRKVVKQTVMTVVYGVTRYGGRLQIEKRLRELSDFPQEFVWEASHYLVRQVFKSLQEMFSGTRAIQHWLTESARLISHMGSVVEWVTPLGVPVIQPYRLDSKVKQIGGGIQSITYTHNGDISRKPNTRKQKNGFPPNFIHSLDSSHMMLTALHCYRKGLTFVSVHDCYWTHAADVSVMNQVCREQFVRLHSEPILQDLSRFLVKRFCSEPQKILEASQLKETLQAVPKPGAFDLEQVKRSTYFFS
UniProt O43252: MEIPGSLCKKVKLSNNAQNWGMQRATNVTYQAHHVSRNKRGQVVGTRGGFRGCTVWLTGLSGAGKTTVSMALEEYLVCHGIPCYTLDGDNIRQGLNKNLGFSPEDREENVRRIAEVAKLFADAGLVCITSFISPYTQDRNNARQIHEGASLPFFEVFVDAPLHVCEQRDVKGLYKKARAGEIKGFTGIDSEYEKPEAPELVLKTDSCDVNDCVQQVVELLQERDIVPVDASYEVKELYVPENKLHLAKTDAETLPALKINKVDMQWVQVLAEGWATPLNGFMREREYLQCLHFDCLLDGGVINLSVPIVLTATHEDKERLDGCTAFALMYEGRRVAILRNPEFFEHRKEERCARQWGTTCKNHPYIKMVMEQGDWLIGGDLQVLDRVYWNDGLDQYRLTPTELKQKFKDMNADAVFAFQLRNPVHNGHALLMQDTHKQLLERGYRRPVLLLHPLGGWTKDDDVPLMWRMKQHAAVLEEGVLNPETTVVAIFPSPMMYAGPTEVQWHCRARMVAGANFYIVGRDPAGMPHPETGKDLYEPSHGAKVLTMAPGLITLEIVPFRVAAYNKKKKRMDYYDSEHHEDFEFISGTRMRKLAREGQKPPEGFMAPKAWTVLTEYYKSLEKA
UniProt O43159: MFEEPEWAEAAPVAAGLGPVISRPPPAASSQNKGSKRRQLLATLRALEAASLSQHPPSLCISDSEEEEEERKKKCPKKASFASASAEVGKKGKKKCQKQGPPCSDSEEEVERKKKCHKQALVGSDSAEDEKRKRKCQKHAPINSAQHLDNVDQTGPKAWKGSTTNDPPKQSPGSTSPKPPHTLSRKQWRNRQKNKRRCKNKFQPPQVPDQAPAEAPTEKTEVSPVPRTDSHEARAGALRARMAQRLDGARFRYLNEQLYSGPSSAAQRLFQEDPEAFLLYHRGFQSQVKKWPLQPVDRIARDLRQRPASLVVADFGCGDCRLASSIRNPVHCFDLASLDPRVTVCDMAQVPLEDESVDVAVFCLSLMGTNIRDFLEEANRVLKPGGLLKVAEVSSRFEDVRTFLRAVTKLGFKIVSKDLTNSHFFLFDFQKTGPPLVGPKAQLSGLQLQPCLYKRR
UniProt Q86Y39: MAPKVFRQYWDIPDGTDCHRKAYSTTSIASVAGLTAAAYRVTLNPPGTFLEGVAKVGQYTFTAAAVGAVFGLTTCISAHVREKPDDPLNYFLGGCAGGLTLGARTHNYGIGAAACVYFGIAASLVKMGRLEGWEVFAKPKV
UniProt O43709: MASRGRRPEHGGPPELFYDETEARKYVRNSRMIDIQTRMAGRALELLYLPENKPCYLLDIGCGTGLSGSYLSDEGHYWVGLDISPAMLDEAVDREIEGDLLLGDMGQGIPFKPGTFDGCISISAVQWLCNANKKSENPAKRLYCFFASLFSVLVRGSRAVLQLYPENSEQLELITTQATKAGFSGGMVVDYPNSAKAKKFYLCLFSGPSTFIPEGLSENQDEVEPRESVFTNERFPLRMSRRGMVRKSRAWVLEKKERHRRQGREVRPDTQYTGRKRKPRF
UniProt O00483, whole entry: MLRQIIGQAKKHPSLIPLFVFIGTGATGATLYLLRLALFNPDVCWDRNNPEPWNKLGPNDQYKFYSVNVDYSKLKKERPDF
UniProt O00151: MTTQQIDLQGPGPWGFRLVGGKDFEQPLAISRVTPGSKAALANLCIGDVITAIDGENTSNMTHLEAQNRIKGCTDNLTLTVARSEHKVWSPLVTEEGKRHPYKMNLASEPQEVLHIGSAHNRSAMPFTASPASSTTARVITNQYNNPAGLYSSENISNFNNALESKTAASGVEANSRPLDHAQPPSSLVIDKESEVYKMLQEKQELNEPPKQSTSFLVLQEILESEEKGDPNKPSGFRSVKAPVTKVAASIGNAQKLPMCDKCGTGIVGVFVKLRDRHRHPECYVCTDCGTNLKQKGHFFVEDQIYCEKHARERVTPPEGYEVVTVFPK
UniProt O15116: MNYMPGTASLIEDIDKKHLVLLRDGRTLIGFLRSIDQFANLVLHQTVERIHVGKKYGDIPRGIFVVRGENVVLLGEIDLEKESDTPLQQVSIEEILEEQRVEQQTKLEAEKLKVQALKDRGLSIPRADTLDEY
UniProt O00628: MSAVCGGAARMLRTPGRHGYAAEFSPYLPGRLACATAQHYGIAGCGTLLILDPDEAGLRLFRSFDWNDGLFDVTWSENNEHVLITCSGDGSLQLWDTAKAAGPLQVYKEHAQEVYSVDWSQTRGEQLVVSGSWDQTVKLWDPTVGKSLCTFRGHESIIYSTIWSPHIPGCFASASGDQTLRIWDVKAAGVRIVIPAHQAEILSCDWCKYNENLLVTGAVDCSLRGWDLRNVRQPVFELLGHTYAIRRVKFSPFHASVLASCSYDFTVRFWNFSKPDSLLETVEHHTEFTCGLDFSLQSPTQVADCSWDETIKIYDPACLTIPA
UniProt O00115: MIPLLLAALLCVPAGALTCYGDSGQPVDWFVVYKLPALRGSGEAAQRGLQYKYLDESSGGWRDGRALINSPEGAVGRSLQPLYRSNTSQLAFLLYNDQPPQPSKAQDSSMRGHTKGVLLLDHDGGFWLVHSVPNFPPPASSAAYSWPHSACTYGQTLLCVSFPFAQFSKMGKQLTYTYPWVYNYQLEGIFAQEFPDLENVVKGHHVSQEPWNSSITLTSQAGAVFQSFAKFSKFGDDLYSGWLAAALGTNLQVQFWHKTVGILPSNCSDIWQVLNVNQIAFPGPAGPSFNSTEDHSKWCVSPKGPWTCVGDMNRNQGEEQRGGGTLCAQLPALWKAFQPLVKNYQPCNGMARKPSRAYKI
UniProt O00186: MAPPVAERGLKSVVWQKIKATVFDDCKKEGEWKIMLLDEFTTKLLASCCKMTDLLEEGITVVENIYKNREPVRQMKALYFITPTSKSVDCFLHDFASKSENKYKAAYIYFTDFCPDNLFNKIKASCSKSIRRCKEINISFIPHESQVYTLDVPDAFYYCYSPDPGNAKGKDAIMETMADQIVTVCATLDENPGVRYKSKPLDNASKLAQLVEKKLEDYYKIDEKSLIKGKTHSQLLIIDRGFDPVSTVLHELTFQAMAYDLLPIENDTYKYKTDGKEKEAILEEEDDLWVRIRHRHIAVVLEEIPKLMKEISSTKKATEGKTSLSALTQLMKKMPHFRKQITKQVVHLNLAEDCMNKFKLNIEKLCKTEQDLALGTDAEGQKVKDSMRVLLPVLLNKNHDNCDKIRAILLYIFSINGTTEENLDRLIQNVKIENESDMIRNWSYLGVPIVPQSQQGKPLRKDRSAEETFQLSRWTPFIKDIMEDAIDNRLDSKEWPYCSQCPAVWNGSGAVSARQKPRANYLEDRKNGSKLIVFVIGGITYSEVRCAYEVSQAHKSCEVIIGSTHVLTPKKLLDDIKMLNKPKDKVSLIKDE
UniProt O43760: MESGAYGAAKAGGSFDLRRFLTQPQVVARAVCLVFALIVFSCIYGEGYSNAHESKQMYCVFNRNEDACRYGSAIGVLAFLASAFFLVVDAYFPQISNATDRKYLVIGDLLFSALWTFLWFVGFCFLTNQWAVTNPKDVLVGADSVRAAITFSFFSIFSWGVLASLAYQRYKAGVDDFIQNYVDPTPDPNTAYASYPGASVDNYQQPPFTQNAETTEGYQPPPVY
UniProt O43639, whole entry: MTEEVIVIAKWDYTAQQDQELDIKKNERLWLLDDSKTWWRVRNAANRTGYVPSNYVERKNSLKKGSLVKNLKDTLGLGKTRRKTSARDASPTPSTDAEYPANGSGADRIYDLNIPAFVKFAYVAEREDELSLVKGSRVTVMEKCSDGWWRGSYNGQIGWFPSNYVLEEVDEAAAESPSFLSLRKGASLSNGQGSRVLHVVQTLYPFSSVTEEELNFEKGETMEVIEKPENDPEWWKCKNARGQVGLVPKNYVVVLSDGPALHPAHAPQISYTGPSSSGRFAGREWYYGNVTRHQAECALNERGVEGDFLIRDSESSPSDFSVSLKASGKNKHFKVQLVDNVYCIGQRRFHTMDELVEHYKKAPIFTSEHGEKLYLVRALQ
UniProt Q8N2G8: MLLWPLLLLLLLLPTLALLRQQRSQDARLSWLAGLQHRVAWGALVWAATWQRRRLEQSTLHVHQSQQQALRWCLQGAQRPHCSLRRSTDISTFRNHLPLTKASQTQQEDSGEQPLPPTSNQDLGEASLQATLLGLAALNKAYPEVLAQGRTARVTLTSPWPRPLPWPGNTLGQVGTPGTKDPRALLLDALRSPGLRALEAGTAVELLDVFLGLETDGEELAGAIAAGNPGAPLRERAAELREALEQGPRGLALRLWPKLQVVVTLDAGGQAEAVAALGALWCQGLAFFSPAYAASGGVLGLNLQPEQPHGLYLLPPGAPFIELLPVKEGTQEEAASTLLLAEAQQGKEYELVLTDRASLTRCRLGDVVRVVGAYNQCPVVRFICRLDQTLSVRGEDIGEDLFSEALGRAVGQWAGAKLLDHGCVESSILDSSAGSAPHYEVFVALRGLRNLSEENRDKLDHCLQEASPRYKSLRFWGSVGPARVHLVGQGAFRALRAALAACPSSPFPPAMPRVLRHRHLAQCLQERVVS

Target	NP40-soluble protein abundance (concentration: 1mM)	NP40-soluble protein abundance (concentration: 2mM)	NP40-soluble protein abundance (concentration: 4mM)	NP40-soluble protein abundance (concentration: 6mM)	NP40-soluble protein abundance (concentration: 8mM)	NP40-soluble protein abundance (concentration: 10mM)
K7EJP7 and related entries (UniProt Q7Z4V5)	1.04 ± 0.034	1.1 ± 0.12	1.07 ± 0.012	1.12 ± 0.053	1.12 ± 0.066	1.19 ± 0.032
K7ERI7 and related entries (UniProt P35268)	1.02 ± 0.038	1.01 ± 0.044	0.982 ± 0.034	1.02 ± 0.014	0.989 ± 0.044	1.04 ± 0.021
SART1 (UniProt O43290)	1.07 ± 0.048	1.12 ± 0.054	1.11 ± 0.034	1.22 ± 0.089	1.26 ± 0.067	1.36 ± 0.081
K7EKW4 and related entries (UniProt Q96AB3)	1 ± 0.074	0.96 ± 0.066	1.01 ± 0.088	1.06 ± 0.042	1.07 ± 0.052	1.03 ± 0.073
UniProt O43852 and related entries	1.003 ± 0.0095	1.07 ± 0.095	0.955 ± 0.029	0.9609 ± 0.0071	0.926 ± 0.016	0.923 ± 0.045
HAT1 (UniProt O14929)	1 ± 0.062	0.918 ± 0.031	1.02 ± 0.073	1.02 ± 0.096	1.09 ± 0.075	1.01 ± 0.086
M0QXA7 and related entries (UniProt O95785)	1.02 ± 0.031	1.04 ± 0.029	1.06 ± 0.013	1.04 ± 0.034	1.02 ± 0.023	1.07 ± 0.032
POLRMT (UniProt O00411)	1.01 ± 0.018	1.01 ± 0.012	0.988 ± 0.015	0.89 ± 0.053	0.883 ± 0.011	0.879 ± 0.022
PAPSS1 (UniProt O43252)	1.01 ± 0.029	0.94 ± 0.071	0.975 ± 0.019	0.947 ± 0.021	0.9491 ± 0.0087	0.917 ± 0.033
SPTLC2 (UniProt O15270)	0.978 ± 0.012	0.929 ± 0.098	0.987 ± 0.031	0.999 ± 0.042	1 ± 0.014	0.951 ± 0.019
UniProt O43159	1.02 ± 0.018	1.048 ± 0.0069	1.04 ± 0.019	1.02 ± 0.013	1.04 ± 0.052	1.07 ± 0.06
UniProt O00560 and related entries	0.978 ± 0.028	0.986 ± 0.017	1.04 ± 0.048	1.02 ± 0.028	1.04 ± 0.077	1.04 ± 0.069
K7EK78 and related entries (UniProt Q86Y39+K7EQ77+K7EP35+K7EMT4+K7EK78)	0.958 ± 0.013	0.963 ± 0.019	0.987 ± 0.032	1 ± 0.044	1.02 ± 0.019	1.01 ± 0.032
UniProt O43172 and related entries	0.9909 ± 0.0052	0.979 ± 0.035	1.01 ± 0.012	1.06 ± 0.033	1.11 ± 0.031	1.15 ± 0.048
UniProt O43709 and related entries	1.06 ± 0.024	1.12 ± 0.026	1.11 ± 0.038	1.09 ± 0.026	1.12 ± 0.018	1.18 ± 0.023
NDUFA4 (UniProt O00483)	0.948 ± 0.073	0.914 ± 0.038	0.925 ± 0.038	0.929 ± 0.059	0.962 ± 0.023	0.906 ± 0.045
ANKRD28 (UniProt O15084)	0.991 ± 0.028	0.932 ± 0.11	0.997 ± 0.031	0.937 ± 0.043	0.939 ± 0.032	0.908 ± 0.044
K7ESQ0 and related entries (UniProt Q9H6Z4)	0.9985 ± 0.0052	1.04 ± 0.057	1.008 ± 0.0041	1.01 ± 0.031	0.997 ± 0.016	1.02 ± 0.024
SGTA (UniProt O43765)	1.03 ± 0.052	1.15 ± 0.079	0.99 ± 0.03	1.01 ± 0.037	0.943 ± 0.054	1.02 ± 0.085
EIF3F (UniProt O00303)	1.01 ± 0.018	1.01 ± 0.048	1.04 ± 0.058	1.11 ± 0.043	1.15 ± 0.049	1.2 ± 0.079
PDLIM1 (UniProt O00151)	1.008 ± 0.0047	1.03 ± 0.029	0.998 ± 0.028	0.98 ± 0.022	0.959 ± 0.021	0.957 ± 0.046
SETD1A (UniProt O15047)	0.978 ± 0.039	1 ± 0.022	1 ± 0.031	0.968 ± 0.019	0.949 ± 0.014	0.973 ± 0.03

Given comma-delimited: part of the list above
Target,NP40-soluble protein abundance (concentration: 1mM),NP40-soluble protein abundance (concentration: 2mM),NP40-soluble protein abundance (concentration: 4mM),NP40-soluble protein abundance (concentration: 6mM),NP40-soluble protein abundance (concentration: 8mM),NP40-soluble protein abundance (concentration: 10mM)
SPTLC2 (UniProt O15270),0.978 ± 0.012,0.929 ± 0.098,0.987 ± 0.031,0.999 ± 0.042,1 ± 0.014,0.951 ± 0.019
UniProt O43159,1.02 ± 0.018,1.048 ± 0.0069,1.04 ± 0.019,1.02 ± 0.013,1.04 ± 0.052,1.07 ± 0.06
UniProt O00560 and related entries,0.978 ± 0.028,0.986 ± 0.017,1.04 ± 0.048,1.02 ± 0.028,1.04 ± 0.077,1.04 ± 0.069
K7EK78 and related entries (UniProt Q86Y39+K7EQ77+K7EP35+K7EMT4+K7EK78),0.958 ± 0.013,0.963 ± 0.019,0.987 ± 0.032,1 ± 0.044,1.02 ± 0.019,1.01 ± 0.032
UniProt O43172 and related entries,0.9909 ± 0.0052,0.979 ± 0.035,1.01 ± 0.012,1.06 ± 0.033,1.11 ± 0.031,1.15 ± 0.048
UniProt O43709 and related entries,1.06 ± 0.024,1.12 ± 0.026,1.11 ± 0.038,1.09 ± 0.026,1.12 ± 0.018,1.18 ± 0.023
NDUFA4 (UniProt O00483),0.948 ± 0.073,0.914 ± 0.038,0.925 ± 0.038,0.929 ± 0.059,0.962 ± 0.023,0.906 ± 0.045
ANKRD28 (UniProt O15084),0.991 ± 0.028,0.932 ± 0.11,0.997 ± 0.031,0.937 ± 0.043,0.939 ± 0.032,0.908 ± 0.044
K7ESQ0 and related entries (UniProt Q9H6Z4),0.9985 ± 0.0052,1.04 ± 0.057,1.008 ± 0.0041,1.01 ± 0.031,0.997 ± 0.016,1.02 ± 0.024
SGTA (UniProt O43765),1.03 ± 0.052,1.15 ± 0.079,0.99 ± 0.03,1.01 ± 0.037,0.943 ± 0.054,1.02 ± 0.085

Following part

Target	NP40-soluble protein abundance (concentration: 1mM)	NP40-soluble protein abundance (concentration: 2mM)	NP40-soluble protein abundance (concentration: 4mM)	NP40-soluble protein abundance (concentration: 6mM)	NP40-soluble protein abundance (concentration: 8mM)	NP40-soluble protein abundance (concentration: 10mM)
L0R819 (UniProt Q9NWL6)	1.04 ± 0.017	1.03 ± 0.074	1.01 ± 0.026	0.996 ± 0.089	0.972 ± 0.055	1 ± 0.044
LSM1 (UniProt O15116)	0.913 ± 0.018	0.961 ± 0.041	0.921 ± 0.0096	0.918 ± 0.023	0.907 ± 0.011	0.897 ± 0.024
UniProt O00628 and related entries	0.989 ± 0.019	0.949 ± 0.071	0.947 ± 0.026	0.959 ± 0.027	0.97 ± 0.035	0.94 ± 0.022
UniProt O00139 and related entries	1.1 ± 0.023	1.07 ± 0.095	1.08 ± 0.023	1.05 ± 0.029	1.05 ± 0.02	1.03 ± 0.012
UniProt O43663 and related entries	1.043 ± 0.0029	1.04 ± 0.041	1.08 ± 0.066	1.13 ± 0.051	1.17 ± 0.021	1.16 ± 0.052
K7EK07 and related entries (UniProt P84243+K7EK07)	0.97 ± 0.11	1.01 ± 0.094	1.01 ± 0.084	1.08 ± 0.13	1.09 ± 0.15	1.16 ± 0.1
UniProt O00115 and related entries	0.989 ± 0.042	1.03 ± 0.069	0.97 ± 0.013	1.01 ± 0.027	0.939 ± 0.022	0.984 ± 0.013
RFXANK (UniProt O14593)	1.01 ± 0.045	0.989 ± 0.03	0.99 ± 0.022	0.9929 ± 0.0085	0.989 ± 0.01	0.988 ± 0.025
UniProt O00291 and related entries	1.02 ± 0.021	1.06 ± 0.033	1.06 ± 0.025	1.04 ± 0.055	1.08 ± 0.036	1.11 ± 0.031
STXBP3 (UniProt O00186)	1.03 ± 0.014	1.01 ± 0.04	1.01 ± 0.041	1.02 ± 0.024	1.01 ± 0.034	1.02 ± 0.052
M0R2B7 and related entries (UniProt P28340)	0.9433 ± 0.0024	0.859 ± 0.1	0.919 ± 0.031	0.9002 ± 0.0066	0.913 ± 0.015	0.862 ± 0.017
GTPBP1 (UniProt O00178)	1.03 ± 0.031	1.03 ± 0.028	1.07 ± 0.039	1.09 ± 0.016	1.09 ± 0.026	1.134 ± 0.01
ZBTB24 (UniProt O43167)	1.02 ± 0.041	1.03 ± 0.075	1.03 ± 0.021	0.952 ± 0.038	0.975 ± 0.023	0.9505 ± 0.0035
MRPS12 (UniProt O15235)	0.946 ± 0.068	0.896 ± 0.069	0.945 ± 0.14	1.01 ± 0.1	1.01 ± 0.14	1.05 ± 0.25
UniProt O43760 and related entries	0.977 ± 0.05	0.976 ± 0.05	0.972 ± 0.053	0.983 ± 0.014	0.979 ± 0.052	0.97 ± 0.035
UniProt O43379-4|O43379	0.995 ± 0.045	0.977 ± 0.027	0.977 ± 0.046	0.948 ± 0.056	0.921 ± 0.06	0.91 ± 0.073
NDC80 (UniProt O14777)	0.997 ± 0.017	1.03 ± 0.05	1.01 ± 0.021	0.9821 ± 0.0024	0.969 ± 0.025	0.986 ± 0.031
STX6 (UniProt O43752)	1.01 ± 0.025	1.04 ± 0.028	1 ± 0.05	0.992 ± 0.027	0.973 ± 0.034	0.979 ± 0.019
UniProt O14639 and related entries	1.02 ± 0.024	1.06 ± 0.037	1.049 ± 0.0085	1.05 ± 0.039	1.06 ± 0.047	1.07 ± 0.095
NCK2 (UniProt O43639)	1.01 ± 0.021	0.975 ± 0.077	1.03 ± 0.06	0.987 ± 0.061	1.03 ± 0.067	0.992 ± 0.079
K7ESN3 and related entries (UniProt Q8N2G8)	1 ± 0.033	0.996 ± 0.041	0.989 ± 0.018	0.98 ± 0.025	0.988 ± 0.041	0.988 ± 0.018

Reference: the supplement of paper PMC6411743
